# Results reported in US20180305451A1.
# No constants are given. Whether binding was seen depends on the method and setting. Some results given as binding are weak or reduced against the parent protein; the word gives no strength.
# T1: human HIDE1 (human) (UniProt A8MVS5)
# T1 sequence: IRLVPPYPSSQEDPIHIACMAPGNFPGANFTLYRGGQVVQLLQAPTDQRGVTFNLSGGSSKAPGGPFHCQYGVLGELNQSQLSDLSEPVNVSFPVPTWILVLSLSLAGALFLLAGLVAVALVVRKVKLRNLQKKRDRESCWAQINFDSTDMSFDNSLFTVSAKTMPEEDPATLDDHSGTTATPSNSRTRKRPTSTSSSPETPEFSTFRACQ
# Assays:
# human HIDE1 (human) [1] = target: T1, human HIDE1 (human); test: FACS, whole blood of 3 healthy donors
# human HIDE1 (human) [2] = target: T1, human HIDE1 (human); test: flow cytometry on whole blood of 3 AML patients, gated CD11b subsets and CD3+ cells; against isotype control
# human HIDE1 (human) [3] = target: T1, human HIDE1 (human); test: FACS on human cell lines (endogenous HIDE1), controls Mouse IgG1 and secondary only, goat anti-mouse PE
# human HIDE1 (human) [4] = target: T1, human HIDE1 (human); test: FACS, endogenous HIDE1 on U-937, THP-1 and HL-60 cells
# human HIDE1-flag (human) [5] = target: human HIDE1-flag (human) (UniProt A8MVS5); test: FACS, CHO-S OKT3 cells over-expressing human HIDE1 Flag against empty vector, 33B4-2F7-Alexa 647 at 5 ug/ml
# human HIDE1 (human) [6] = target: T1, human HIDE1 (human); test: FACS on PBMCs gated on CD14+ cells, Alexa 647 labelled antibody
# human HIDE1 (human) [7] = target: T1, human HIDE1 (human); test: FACS on HL-60 and U937 cells transfected with human HIDE1 siRNA or scrambled siRNA, clone 33B4-2F7 by the legend paragraph 113, goat anti-mouse PE
# human HIDE1-flag (human) [8] = target: human HIDE1-flag (human) (UniProt A8MVS5); test: FACS, CHO-S OKT3 human HIDE1 Flag cells
# human HIDE1 (human) [9] = target: T1, human HIDE1 (human); test: FACS, whole blood of 3 AML patients
# human HIDE1-flag (human) [10] = target: human HIDE1-flag (human) (UniProt A8MVS5); test: WB, extracts of HEK293 human HIDE1 flag cells
# human HIDE1-flag (human) [11] = target: human HIDE1-flag (human) (UniProt A8MVS5); test: Western blot of whole cell extracts, goat anti-mouse HRP
# human HIDE1-flag (human) [12] = target: human HIDE1-flag (human) (UniProt A8MVS5); test: FACS on HEK293 pMSCV human HIDE1 flag cells, controls Mouse IgG1 and HEK293 pMSCV cells, goat anti-mouse PE
# human HIDE1-flag (human) [13] = target: human HIDE1-flag (human) (UniProt A8MVS5); test: FACS, HEK293 human HIDE1 Flag cells
# human HIDE1 (human) [14] = target: T1, human HIDE1 (human); test: flow cytometry on whole blood of 3 healthy donors, gated lymphocytes, monocytes, neutrophils; against isotype control
# [15] = target: HIDE1_HH-1 (Human ECD + human IgG1 Fc mutated C220S at hinge), without SP (human); test: SPR (ProteOn XPR 36): HIDE1-HH-1 captured on goat anti-human Fc GLC chip, Fab periplasmic extract injected 2 min, undiluted and 3-fold dilutions, 10 min dissociation
# human HIDE1 (human) [16] = target: T1, human HIDE1 (human); test: FACS on 293T-huHIDE1 cells, human IgG4
binder,measurement,setting,value
"Mouse anti human HIDE1 mAb (Biotem #33B4-2F7) (antibody, mouse IgG1, kappa, V domains shown) VH: QIQLVQSGPELKKPGETVKISCKASGYTFTNYGMNWVKQAPGKGLKWMGWINTYTGEPTYADDFKGRFAFSLETPASTAYLQINNLKNEDMATYFCVREHFYALDYWGQGTSVTVSS VL: KIVLTQSPASLAVSLRQRATISCRASESVDSYGNSFMHWYQQKPGQPPKLLIYRASNLESGVPARFSGSGSRTDFTLTIDPVEADDAATYYCQQSNEDPRTFGGGTKLEIKR",binding,human HIDE1 (human) [1],binds
same,binding,human HIDE1 (human) [2],binds
same,binding,human HIDE1 (human) [3],binds
same,binding,human HIDE1 (human) [4],binds
same,binding,human HIDE1-flag (human) [5],binds
same,binding,human HIDE1 (human) [6],binds
same,binding,human HIDE1 (human) [7],binds
same,binding,human HIDE1-flag (human) [8],binds
same,binding,human HIDE1 (human) [9],binds
same,binding,human HIDE1-flag (human) [10],binds
same,binding,human HIDE1-flag (human) [11],binds
same,binding,human HIDE1-flag (human) [12],binds
same,binding,human HIDE1-flag (human) [13],binds
same,binding,human HIDE1 (human) [14],binds
"Mouse anti human HIDE1 mAb (Biotem #39A7-3A10-3G8) (antibody, mouse IgG1, kappa, V domains shown) VH: QVQLQQSGAELVRPGASVKLSCKALGYTFTDYEMHWVKQTPVHGLEWIGDIYPGSGGTAYNQKFKGKATLTADKSSSTAYMELSSLTSEDSAVYYCTRKGRSFAYWGQGTLVTVSA VL: NIVMTQSPKSMSMSVGERVTLSCKASENVDTYVSWYQQKPEQSPKLLIYGASNRYTGVPDRFTGSGSATDFTLIISSVQAEDLADYHCGQSYRYPLTFGAGTKLELKR",binding,human HIDE1-flag (human) [10],binds
same,binding,human HIDE1-flag (human) [11],binds
same,binding,human HIDE1-flag (human) [12],binds
same,binding,human HIDE1-flag (human) [13],binds
"CPA.12.009 Fab (A10 S398-02.A04) (Fab, V domains shown) VH: QMQLVQSGAEVKKPGASVKVSCKASGYTFTTHAFSWVRQAPGLGLEWMGWISTYNGNTKYEQKFQGRVTLTTDSSTNTAYMELRSLRSDDTAVYYCVRDSRAFDVWGQGTMVTVSS VL: DIQLTQSPSFLSASVGDRVTITCRASQGINSYLAWYQQKPGAAPKLLIYAASTLQSGVPSRFSGSGSGTEFTLTISSLQPEDFATYYCQQLNTYPLIFGQGTRLEIKR",binding,[15],binds
"CPA.12.002 human IgG4 (antibody, V domains shown) VH: EVQLVESGGGLVQPGRSLRLSCAASGFTFSSYAMHWVRQVPGKGLEWVAVISYDGSNKYYADSVKGRFTISRDNSKNTLYLQMNSLRAEDTAVYYCAKPMYSSGWYPLGYWGQGTLVTVSS VL: DIVMTQTPLSLPVTPGQPASISCRSSQSPLDTDGNTYLDWYLQRPGQSPQLLIYTLSNRASGVPDRFSGSGSGTDFTLKISRVEAEDVGIYYCMQRIQYPLTFGPGTRLEIKR",binding,human HIDE1 (human) [16],binds
"CPA.12.003 human IgG4 (antibody, V domains shown) VH: QVQLQESGPGLVTPSETLSLTCTVSGGSISSVSYYWGWVRQPPGKGLEWIGSIYYSGTTAHNPSLKSRVTMAVDTSKNQFSLSLSSVTAADTAVYFCARGWRYYEDYYFDHWGQGTLVTVSS VL: DIQMTQSPSTLSASVGDRVTITCRASQSINRWLAWYQQKPGKAPKILIYTASSLESGVPSRFSGSGSGTEFTLTISSLQPDDFATYYCQQYNSYPITFGQGTRLEIKR",binding,human HIDE1 (human) [16],binds
"CPA.12.004 human IgG4 (antibody, V domains shown) VH: EVQLVETGGGLIQPGRSLRLSCVASDFRFSNHAMHWVRQAPGKELEWVAVISSDGSNRQYAYSVKGRFTISRDNSKNTLYLEMNILGPEDTAVYFCVRSHLGPEWYYGMDVWGQGTTVTVSS VL: DIQMTQSPSSLSTSVGDSVTITCRSSQSISTFLSWFQHKPGKAPNLLIYDASSLQSGVPSRFSGSGSGTDFTLTISSLQPEDFATYYCQQSDYLPFTFGPGTKVEIKR",binding,human HIDE1 (human) [16],binds
"CPA.12.006 human IgG4 (antibody, V domains shown) VH: EVQLVESGGGVVQPGRSLRLSCAASGFTFSSFAMHWVRQAPGKGPEWLGIILYEGGHVVYADSVRGRLTISRDNSKNTLYLQMDSLRDEDTAVYYCAKGFYHAFDVWGQGTMVTVSS VL: QAVLTQPASLSASPGASASLTCTLRSGINVGTYRIYWYQQKPGSPPQYLLRYKSDSDKQQGSGVPSRFSGSKDASANAGILLISGLQSEDEADYYCMIWHSSAWVFGGGTQLTVLG",binding,human HIDE1 (human) [16],binds
"CPA.12.007 human IgG4 (antibody, V domains shown) VH: EVQLVESGGGVVQPGESLRLSCAASGFTFSSYGFHWVRQSPGEGLEWLAVISYDGTSKSYADSVKGRFTVSRDNSKETLYLQLSSLRREDTALYYCARDTWGYYYGMDVWGQGTTVTVSS VL: DIQMTQSPSFLSGSVGDRVSISCRASQDIRSHLAWYQRKPGEAPKLLIYTASSLQGGVPLRFSGSGSGTEFTLTISSLQPEDSATYYCQHLHLYPLTFGGGTKLEIKR",binding,human HIDE1 (human) [16],binds
"CPA.12.008 human IgG4 (antibody, V domains shown) VH: QVQLQESGPGLVTPSETLSLTCTVSGGSISSVSYYWGWVRQPPGKGLEWIGSIYYSGTTAHNPSLKSRVTMAVDTSKNQFSLSLSSVTAADTAVYFCARGWRYYEDYYFDHWGQGTLVTVSS VL: AIRMTQSPSSLSASVGDRVTITCQASQDISNYLNWYQQKPGKAPKSLIYAASSLQSGVPSKFSGSGSGTDFTLTISSLQPEDFATYYCQQYYSYPLTFGGGTKVEIKR",binding,human HIDE1 (human) [16],binds
"CPA.12.009 human IgG4 (antibody, V domains shown) VH: QMQLVQSGAEVKKPGASVKVSCKASGYTFTTHAFSWVRQAPGLGLEWMGWISTYNGNTKYEQKFQGRVTLTTDSSTNTAYMELRSLRSDDTAVYYCVRDSRAFDVWGQGTMVTVSS VL: DIQLTQSPSFLSASVGDRVTITCRASQGINSYLAWYQQKPGAAPKLLIYAASTLQSGVPSRFSGSGSGTEFTLTISSLQPEDFATYYCQQLNTYPLIFGQGTRLEIKR",binding,human HIDE1 (human) [16],binds
"CPA.12.013 human IgG4 (antibody, V domains shown) VH: EVQLVETGGGLIQPGRSLRLSCVASDFRFSNHAMHWVRQAPGKELEWVAVISSDGSNRQYAYSVKGRFTISRDNSKNTLYLEMNILGPEDTAVYFCVRSHLGPEWYYGMDVWGQGTTVTVSS VL: DIQMTQSPSSLSASVGDRVTITCQASHDIRKFLNWYQQHPGKAPKLLIYDAAYSEIGVPSRFSGGGSGTDFTFTINNLQPDDFATYYCQQYESLPFTFGPGTKVDIKR",binding,human HIDE1 (human) [16],binds
"CPA.12.014 human IgG4 (antibody, V domains shown) VH: QVTLKESGPALVTPTQNLTLTCTVSGGSISSSSYYWGWIRQPPGKGLEWIGSIYYSGSTYYNPSLKSRVTISVDTSKNQFSLKLSSVTAADTAVYYCARRRNSSGWFYFDYWGQGTLVTVSS VL: QSVLTQPPSVSGAPRQRVTISCSGSRSNIGDNAVNWYQHPPGKAPKLLIYYDDLLPSGVSDRFSGSKSGTSASLAISGLQSEDEADYYCATWDDSLNGHVFGTGTKLTVLG",binding,human HIDE1 (human) [16],binds
"CPA.12.015 human IgG4 (antibody, V domains shown) VH: QVQLQESGPGLVKPSETLSLTCTVSGGSISSSSYYWGWIRQPPGKGLEWIGSIYYSGSTHYNPSLKSRVTISVDTSKNQFSLKLSSVTAADTAVYYCARVYYGSGTGGAFDIWGQGTMVTVSS VL: QSVLTQPPSVSGAPGQRVTISCTGSSSNIGAAYDVHWYQQLPGTAPKLLIYGDTIRPSGVPDRFSGSKSGTSASLAITGLQAEDEADYYCQSYDSSLSGSWVFGGGTQLTVLG",binding,human HIDE1 (human) [16],binds
